# Laboratory results from PubChem BioAssay AID662 (National Center for Advancing Translational Sciences (NCATS), 2007).
# The other results are listed elsewhere or left out. Further columns of the screen follow, without active or inactive calls. The list favours compounds with an active or inconclusive main result. Potencies come from curve fits of mixed quality, noted in brackets.
# Experiment: Cell signaling CRE-BLA (Fsk stim)
# Conditions: CHO CRE-bla reporter (cAMP response element driving beta-lactamase), forskolin EC10, beta-lactamase ratio; measured here: 460 nm blue channel
# Procedure, shortened: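 CRE-bla CHO reporter cells treated with compound titration plus EC10 NKH 477 (water-soluble forskolin), incubated 3 h at 37 °C; CCF4 loading 2 h at room temperature, 460/530 nm emission ratio read, AC50 values derived for positive or negative modulators.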
row,Compound,AC50
1,CCCC[C@@H]1C[C@H]1C(NC(=O)c1ccccc1)c1ccc(C(=O)OC)cc1 (stereo partly drawn),"5.01 µM [rising, partial curve]"
2,CN=CC1=C(O)c2ccccc2C1=O,"0.0794 µM [falling, full curve]"
3,CCCc1cc(-c2[nH]ncc2-c2ccc3c(c2)OCCCO3)c(O)cc1O,"6.31 µM [falling, partial curve]"
4,CCn1c(=O)c2cc(C(=O)N3CCOCC3)sc2c2ccccc21,"2 µM [rising, full curve]"
5,O=C(c1ccco1)N1CCN(c2ncnc3c2[nH]c2ccc(Br)cc23)CC1,"0.126 µM [rising, full curve]"
6,COCCOC(=O)/C=C1/NC(=O)CS1,"5.01 µM [falling, single point]"
7,CC1(C)Cc2ccccc2-c2nnc(-c3ccccn3)n21,"10 µM [falling, single point]"
8,Cc1ccc(Nc2nc(N)nc(CN3CCN(C(=O)c4ccco4)CC3)n2)cc1Cl,"12.6 µM [rising, single point]"
9,CC1(C)Cc2c(C#N)c(SCC(=O)c3ccccc3)nc(N3CCOCC3)c2CO1,"0.00398 µM [falling, full curve, poor fit]"
10,Cc1cc(NC(=O)c2cc(S(=O)(=O)N3CCCCC3)ccc2C)n(-c2ccccn2)n1,"2.51 µM [rising, single point]"
11,Cn1c(=O)[nH]c(=O)c2c1nc(CN1CCN(c3ccc(F)cc3)CC1)n2CCCc1ccccc1,"3.98 µM [rising, partial curve]"
12,COc1ccc(C(c2sc3nc(C)nn3c2O)N2CCc3ccccc3C2)cc1 (stereo not drawn),"7.94 µM [rising, partial curve]"
13,Cc1ccnc2nc(C(=O)OCCOc3ccccc3)nn12,"25.1 µM [rising, single point]"
14,Cc1ccc2cc3cc(C(=O)NCCCN4CCCCCC4)oc3nc2c1,"0.1 µM [rising, full curve]"
15,CSc1nc(-c2ccccc2)nc(SC)c1C(C)=O,"12.6 µM [rising, partial curve]"
16,CCCCCCCC(=O)O[C@H](CC(=O)O)C[N+](C)(C)C,"31.6 µM [falling, single point]"
17,Cc1ccc2nc(NC(=O)CNS(=O)(=O)c3ccc(Br)s3)sc2c1,"0.158 µM [falling, full curve]"
18,CCCn1c(-c2ccc(F)cc2)n[nH]c1=S,"10 µM [rising, partial curve, poor fit]"
19,CCOC(=O)C1CCN(C(=O)CCCOc2ccccc2)CC1,"0.316 µM [rising, partial curve, poor fit]"
20,COC1Cc2ccccc2N(C(=O)N2CCN(CCO)CC2)c2ccccc21 (stereo not drawn),"3.98 µM [falling, full curve, poor fit]"
21,Cc1cc(=O)oc2c(N)c(O)ccc12,"20 µM [falling, single point]"
22,CCOC(=O)Cn1c(=O)n(CC(=O)OCC)c2ccccc21,"0.02 µM [falling, full curve, poor fit]"
23,CC1=C(C(=O)OC2CCCCC2)C(c2ccco2)n2ncnc2N1 (stereo not drawn),"6.31 µM [rising, partial curve]"

row,Compound,AC50
1,COC(=O)[C@@]1(Cc2ccccc2)[C@H]2c3cc(C(=O)N(C)C)n(Cc4ccc(S(C)(=O)=O)cc4)c3C[C@H]2CN1C(=O)c1ccccc1,"0.126 µM [rising, full curve, poor fit]"
2,COc1cc(/C=C\C(=O)CC(=O)/C=C\c2ccc(O)c(OC)c2)ccc1O,"25.1 µM [rising, partial curve]"
3,O=C(NCC(=O)N1CCC(N2CCCCC2)CC1)C1CCCCC1,"12.6 µM [rising, single point]"
4,O=C(CCCOc1ccccc1)N1CCCc2ccccc21,"0.00316 µM [falling, partial curve, poor fit]"
5,CC12CCC(c3c(C(=O)Nc4nccs4)nn(-c4ccccc4)c31)C2(C)C (stereo not drawn),"12.6 µM [rising, partial curve]"
6,Cc1nnc2sc(-c3csc4c3CCCC4)nn12,"10 µM [rising, partial curve]"
7,Cc1cccn2c(=O)c(C=Nc3ccc(Cl)cc3)c(NCCO)nc12,"0.1 µM [rising, partial curve]"
8,Cc1ccccc1OCCCC(=O)Nc1ccc(N2CCOCC2)cc1,"0.0631 µM [rising, full curve, poor fit]"
9,COc1ccc(CNc2nc(-c3c(C)noc3C)nc3ccccc23)c(OC)c1,"10 µM [rising, partial curve]"
10,O=C1CSc2ccccc2N1Cc1ccccc1F,"25.1 µM [rising, single point]"
11,Cc1cc(C)c2nc(N3CCCC3)c(C#N)cc2c1,"12.6 µM [rising, partial curve]"
12,Cc1cccc(-c2noc(-c3ccccc3C(=O)NCC3CCCO3)n2)c1 (stereo not drawn),"2.51 µM [falling, single point]"
13,Cc1c(-c2ccccc2)nc2ccccc2c1C(=O)O,"0.631 µM [rising, full curve]"
14,CCCn1c(C)nc2c(NC3CCN(Cc4ccccc4)C3)nc(C)nc21 (stereo not drawn),"12.6 µM [rising, partial curve, poor fit]"
15,CC(/C=C/C=C(C)/C=C/C(=O)O)=C\C=C\C=C(C)\C=C\C=C(C)\C=C\C(=O)O,"1.26 µM [falling, full curve, poor fit]"
16,CCNc1ncc2nc(-c3cn(C)c4ccccc34)c(=O)n(C)c2n1,"10 µM [rising, partial curve]"
17,CCCn1c(=NC(C)=O)c(C#N)cc2c(=O)n3cccc(C)c3nc21,"2 µM [rising, full curve]"
18,O=C(CC(=O)c1ccccc1)Nc1ccc2c(c1)OCCO2,"12.6 µM [falling, partial curve, poor fit]"
19,N=c1c(C(=O)NCc2ccc(F)cc2)cc2c(=O)n3ccccc3nc2n1Cc1ccco1,"6.31 µM [rising, partial curve]"
20,CC(C)(C)c1ccc(-c2nnc3sc(-c4ccccn4)nn23)cc1,"7.94 µM [rising, partial curve]"
21,COc1ccc(Cn2c(C)ccc2C)cc1,"0.316 µM [rising, full curve]"
22,CCOc1ccccc1C1C(C#N)=C(N)SC(N)=C1C#N,"5.01 µM [falling, single point]"
23,CCOC(=O)c1ccc(N2C(=O)CC(N3CCN(C(=O)c4ccco4)CC3)C2=O)cc1 (stereo not drawn),"0.158 µM [falling, full curve]"

# Some of the entries above, reformatted:
row | Compound | AC50
12 | Cc1cccc(-c2noc(-c3ccccc3C(=O)NCC3CCCO3)n2)c1 (stereo not drawn) | 2.51 µM [falling, single point]
13 | Cc1c(-c2ccccc2)nc2ccccc2c1C(=O)O | 0.631 µM [rising, full curve]
14 | CCCn1c(C)nc2c(NC3CCN(Cc4ccccc4)C3)nc(C)nc21 (stereo not drawn) | 12.6 µM [rising, partial curve, poor fit]
15 | CC(/C=C/C=C(C)/C=C/C(=O)O)=C\C=C\C=C(C)\C=C\C=C(C)\C=C\C(=O)O | 1.26 µM [falling, full curve, poor fit]

# Next part:

row,Compound,AC50
1,CC1CN(C(=O)CN2C(=O)NC(C)(c3ccccc3)C2=O)CC(C)O1 (stereo not drawn),"0.2 µM [falling, partial curve]"
2,CCCCCCn1cnc2c(c1=O)c1nc3ccccc3nc1n2/N=C/c1ccco1,"1.58 µM [rising, full curve]"
3,CC(C)c1cc(=O)oc2c3c4c(cc12)CCCN4CCC3,"12.6 µM [rising, partial curve]"
4,CCOc1ccc(CCNC(=O)C2CCN(c3ccc(N4CCOCC4)nn3)CC2)cc1OCC,"25.1 µM [rising, partial curve, poor fit]"
5,Cc1ccc2[nH]c(C(=O)O)c(-c3ccccc3)c2c1,"5.01 µM [falling, single point]"
6,COc1ccccc1OCC(=O)NCC1CCCCC1,"0.0316 µM [falling, full curve, poor fit]"
7,Cn1c(C(=O)NCCN2CCOCC2)cc2c(=O)n(C)c3ccccc3c21,"12.6 µM [rising, partial curve]"
8,CCc1ccc2oc(=O)cc(CN(C)Cc3ccccc3)c2c1,"2 µM [rising, partial curve]"
9,N#CC1=C(SCc2ccccc2)NC(=O)CC1c1ccc(O)cc1 (stereo not drawn),"0.00316 µM [falling, full curve, poor fit]"
10,CCOc1ccc(-n2c(Cc3cc(=O)[nH]c(=O)[nH]3)nnc2SCC(N)=O)cc1,"25.1 µM [rising, single point]"
11,Cc1cccc(CNc2cc(-c3ccccc3C)ncn2)c1,"25.1 µM [rising, single point]"
12,O=C(Nc1ccccc1Cl)c1cc(S(=O)(=O)N2CCCC(C(=O)O)C2)ccc1F (stereo not drawn),"2 µM [rising, partial curve]"
13,C=CCn1c(SCC(=O)Nc2cc(C)ccc2OC)nnc1-c1ccco1,"10 µM [rising, single point]"
14,COc1ccc(CNc2nc(-c3cccnc3)nn2C(=O)c2cccs2)cc1,"3.98 µM [rising, full curve]"
15,COc1ccc(N(CC(=O)N2c3ccccc3CC2C)S(=O)(=O)c2c(C)noc2C)cc1 (stereo not drawn),"10 µM [rising, partial curve, poor fit]"
16,CCCC(=O)Nc1ccc2c(c1)nc1n2CCSC1,"15.8 µM [rising, single point]"
17,Cc1ccc(C(=O)CC2(O)C(=O)N(Cc3ccccc3Cl)c3ccccc32)o1 (stereo not drawn),"12.6 µM [falling, partial curve, poor fit]"
18,COc1ncc2nc(-c3cccs3)c(=O)n(CCC#N)c2n1,"12.6 µM [rising, partial curve]"
19,COc1ncc2nc(CCc3ccccc3)c(=O)n(Cc3cccs3)c2n1,"15.8 µM [rising, partial curve]"
20,CCOC(=O)N1CCN(C(=O)c2cnsn2)CC1,"0.316 µM [falling, partial curve]"
21,Cn1c(SCc2cccnc2)nc2cccnc21,"10 µM [rising, single point]"
22,COc1cc(C)cc2c(-c3c(O)cc(O)c4c3C[C@H](C)N[C@@H]4C)cc(-c3cc(-c4c(O)cc(O)c5c4C[C@H](C)N[C@@H]5C)c4cc(C)cc(OC)c4c3O)c(O)c12,"0.000794 µM [falling, full curve, poor fit]"
